{"source": "paper PMC12040169", "about": "(PLOS Biology, 2025)", "note": "Some of the results follow.", "data": [{"tested_on": "T1, CTL2-GFP (C. trachomatis L2/434/Bu, GFP-expressing)", "T1 construct": "L2/434/Bu, GFP-expressing", "parameters": "species or system HeLa; Intracellular C. trachomatis growth in HeLa cells, bulk GFP fluorescence relative to DMSO", "settings": "bulk GFP, single well; 28.5 h, 10 µM; inhibitor", "units": {"% of control remaining": "%"}, "values": [{"compound": "CS(=O)(=O)c1ccccc1C(=O)n1ccn(-c2cccc(C(F)(F)F)c2)c1=O", "note": "[CBK106584]", "% of control remaining": 125.902}, {"compound": "CC1CCCN(CCCNS(=O)(=O)c2ccc(N3CCCC3=O)cc2)C1", "note": "(stereo not drawn) [CBK304213]", "% of control remaining": 111.498}, {"compound": "Nn1cnn2c(SCc3ccc(Cl)cc3)nnc12", "note": "[CBK263193]", "% of control remaining": 125.493}, {"compound": "O=C1NCC2(C/C=C/CCOc3ccccc31)CCN(C(=O)Cc1cccc(F)c1)CC2", "note": "[CBK292015]", "% of control remaining": 99.5725}, {"compound": "Brc1ccc2c(c1)COC1(CN3CCC1CC3)O2", "note": "(stereo not drawn) [CBK105268]", "% of control remaining": 107.517}, {"compound": "Cc1n[nH]c(C)c1-c1ccc2c(cnn2C)c1", "note": "[CBK307314]", "% of control remaining": 143.943}, {"compound": "CC(C)(C)CC(=O)NS(=O)(=O)c1cccc(-c2nnco2)c1", "note": "[CBK305258]", "% of control remaining": 101.945}, {"compound": "CN(C)C(=O)COc1cccc(Nc2nc(-c3cccc4ccccc34)cn3ccnc23)c1", "note": "[CBK037393]", "% of control remaining": 164.327}, {"compound": "Cn1c(N2CCOCC2)nc2cc(C(=O)NCCn3cccn3)ccc21", "note": "[CBK307033]", "% of control remaining": 123.551}, {"compound": "CC(C)NC(=O)N1C[C@@H]2C[C@H](C1)c1ccc(-c3cccnc3)c(=O)n1C2", "note": "[CBK289184]", "% of control remaining": 157.765}, {"compound": "O=C(Nc1ccncc1)c1cnn(-c2ccc(Cl)cc2)c1C(F)(F)F", "note": "[CBK107441]", "% of control remaining": 96.5508}, {"compound": "O=C(NCc1ccc(F)cc1)NC(=O)C1CCN(CCc2ccc(Br)cc2)CC1", "note": "[CBK034836]", "% of control remaining": 143.37}, {"compound": "CCN(CC)c1ccc(CN(CCCN(C)C)C(=O)NCC2CCCCC2)cc1", "note": "[CBK159392]", "% of control remaining": 89.1244}, {"compound": "O=C(NC1CCCC1)c1ccc2c(c1)C(=O)N(CC1CCCO1)C2=O", "note": "(stereo not drawn) [CBK269777]", "% of control remaining": 81.2335}, {"compound": "CO[C@@]12CC[C@@H](O)C[C@@H]1N(C(=O)c1cccc3c1NCCC3)CC2", "note": "[CBK306741]", "% of control remaining": 133.595}, {"compound": "Cc1ccc(C)c2[nH]c(=O)c(CN(CCN3CCOCC3)Cc3nnnn3Cc3ccccc3)cc12", "note": "[CBK108063]", "% of control remaining": 112.316}, {"compound": "O=C(O)c1ccc(OCCN2CCOCC2)cc1", "note": "[CBK287038]", "% of control remaining": 126.698}, {"compound": "CNC(=O)C1(Cc2ccccc2-c2cccs2)CCN(C(=O)CCc2ccccc2)CC1", "note": "[CBK285900]", "% of control remaining": 97.6282}, {"compound": "O=C(N[C@H]1C[C@H]2C(=O)Nc3ccccc3C(=O)N2C1)c1ccccc1", "note": "[CBK289354]", "% of control remaining": 99.581}, {"compound": "COc1cc(C)cc(OC)c1-c1ncnc(C)c1C", "note": "[CBK306762]", "% of control remaining": 125.495}, {"compound": "COc1cccc2cc(C(=O)NCc3ccc4c(c3)OCO4)oc12", "note": "[CBK149797]", "% of control remaining": 87.7663}]}]}
